Results: article PMC10238197, “Deafness‐Associated ADGRV1 Mutation Impairs USH2A Stability through Improper Phosphorylation of WHRN and WDSUB1 Recruitment” (Advanced Science, 2023)
Results are given in words; binding and its absence hold for the method and conditions named. Binding seen in cells or lysates may run through a third protein. Some results given as binding are weak or reduced against the parent protein; the word gives no strength. Tags and fused reporters may be left off the sequences shown.

What was measured:
Experiment in all cases: FRET or BRET; intermolecular FlAsH-BRET saturation in HEK293 cells: fixed amount of WHRN-Nluc, increasing ADGRV1-FlAsH or USH2A-FlAsH; 2.5 µM FlAsH-EDT2, 5 µM coelenterazine-h; net BRET Em530/Em485
[1] = molecular target: T1, WHRN-Nluc (Z1-L) H202A (mouse) (UniProt Q80VW5)
T1 sequence: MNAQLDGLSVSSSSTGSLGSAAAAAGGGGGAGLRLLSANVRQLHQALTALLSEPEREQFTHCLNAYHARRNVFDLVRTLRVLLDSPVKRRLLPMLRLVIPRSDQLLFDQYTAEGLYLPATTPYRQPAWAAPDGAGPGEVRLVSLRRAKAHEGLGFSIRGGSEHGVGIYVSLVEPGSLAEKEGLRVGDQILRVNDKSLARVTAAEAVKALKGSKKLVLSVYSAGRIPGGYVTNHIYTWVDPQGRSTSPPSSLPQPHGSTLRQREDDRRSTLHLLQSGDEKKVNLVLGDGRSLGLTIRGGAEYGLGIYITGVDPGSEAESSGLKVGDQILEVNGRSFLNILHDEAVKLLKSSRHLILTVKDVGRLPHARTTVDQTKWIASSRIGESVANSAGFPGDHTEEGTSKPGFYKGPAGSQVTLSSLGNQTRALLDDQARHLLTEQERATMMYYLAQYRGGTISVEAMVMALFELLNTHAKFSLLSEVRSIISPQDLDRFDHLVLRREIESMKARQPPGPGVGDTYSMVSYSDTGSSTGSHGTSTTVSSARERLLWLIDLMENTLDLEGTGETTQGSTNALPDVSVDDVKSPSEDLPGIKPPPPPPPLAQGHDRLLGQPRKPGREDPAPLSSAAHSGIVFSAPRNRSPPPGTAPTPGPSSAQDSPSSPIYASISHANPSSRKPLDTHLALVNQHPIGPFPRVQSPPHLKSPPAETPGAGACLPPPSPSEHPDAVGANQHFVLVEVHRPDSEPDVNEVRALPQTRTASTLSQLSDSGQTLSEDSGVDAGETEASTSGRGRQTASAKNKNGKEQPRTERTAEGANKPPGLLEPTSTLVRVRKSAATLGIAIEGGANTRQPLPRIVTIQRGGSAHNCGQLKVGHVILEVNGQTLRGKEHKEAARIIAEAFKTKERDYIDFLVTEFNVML

[2] = molecular target: T2, WHRN-Nluc (Z1-L) L209A (mouse) (UniProt Q80VW5)
T2 sequence: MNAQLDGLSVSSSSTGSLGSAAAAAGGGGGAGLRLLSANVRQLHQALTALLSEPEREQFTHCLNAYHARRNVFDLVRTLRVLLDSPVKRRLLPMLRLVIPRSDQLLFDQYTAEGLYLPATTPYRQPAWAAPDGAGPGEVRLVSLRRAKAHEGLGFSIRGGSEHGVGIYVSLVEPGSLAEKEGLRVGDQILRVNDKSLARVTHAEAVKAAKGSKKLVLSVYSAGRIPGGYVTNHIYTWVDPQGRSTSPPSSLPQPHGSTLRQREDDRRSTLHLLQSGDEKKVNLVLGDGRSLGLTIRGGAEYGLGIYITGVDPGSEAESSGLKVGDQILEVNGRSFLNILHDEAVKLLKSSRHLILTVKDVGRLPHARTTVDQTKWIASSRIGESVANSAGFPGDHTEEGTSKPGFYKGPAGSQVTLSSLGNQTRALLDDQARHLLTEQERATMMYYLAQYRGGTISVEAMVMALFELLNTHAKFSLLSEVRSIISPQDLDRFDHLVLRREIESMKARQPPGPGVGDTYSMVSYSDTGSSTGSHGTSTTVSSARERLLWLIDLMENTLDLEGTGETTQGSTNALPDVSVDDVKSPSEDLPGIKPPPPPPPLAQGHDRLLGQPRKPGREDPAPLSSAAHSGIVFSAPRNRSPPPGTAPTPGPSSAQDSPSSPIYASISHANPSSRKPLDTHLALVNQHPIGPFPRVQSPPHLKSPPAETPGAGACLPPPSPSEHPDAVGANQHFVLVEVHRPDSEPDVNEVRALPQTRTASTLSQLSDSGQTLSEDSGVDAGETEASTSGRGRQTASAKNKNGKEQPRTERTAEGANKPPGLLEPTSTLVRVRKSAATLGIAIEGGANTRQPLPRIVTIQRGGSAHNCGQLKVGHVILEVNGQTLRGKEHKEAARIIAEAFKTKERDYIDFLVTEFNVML

[3] = molecular target: T3, WHRN-Nluc (Z1-L) S170A (mouse) (UniProt Q80VW5)
T3 sequence: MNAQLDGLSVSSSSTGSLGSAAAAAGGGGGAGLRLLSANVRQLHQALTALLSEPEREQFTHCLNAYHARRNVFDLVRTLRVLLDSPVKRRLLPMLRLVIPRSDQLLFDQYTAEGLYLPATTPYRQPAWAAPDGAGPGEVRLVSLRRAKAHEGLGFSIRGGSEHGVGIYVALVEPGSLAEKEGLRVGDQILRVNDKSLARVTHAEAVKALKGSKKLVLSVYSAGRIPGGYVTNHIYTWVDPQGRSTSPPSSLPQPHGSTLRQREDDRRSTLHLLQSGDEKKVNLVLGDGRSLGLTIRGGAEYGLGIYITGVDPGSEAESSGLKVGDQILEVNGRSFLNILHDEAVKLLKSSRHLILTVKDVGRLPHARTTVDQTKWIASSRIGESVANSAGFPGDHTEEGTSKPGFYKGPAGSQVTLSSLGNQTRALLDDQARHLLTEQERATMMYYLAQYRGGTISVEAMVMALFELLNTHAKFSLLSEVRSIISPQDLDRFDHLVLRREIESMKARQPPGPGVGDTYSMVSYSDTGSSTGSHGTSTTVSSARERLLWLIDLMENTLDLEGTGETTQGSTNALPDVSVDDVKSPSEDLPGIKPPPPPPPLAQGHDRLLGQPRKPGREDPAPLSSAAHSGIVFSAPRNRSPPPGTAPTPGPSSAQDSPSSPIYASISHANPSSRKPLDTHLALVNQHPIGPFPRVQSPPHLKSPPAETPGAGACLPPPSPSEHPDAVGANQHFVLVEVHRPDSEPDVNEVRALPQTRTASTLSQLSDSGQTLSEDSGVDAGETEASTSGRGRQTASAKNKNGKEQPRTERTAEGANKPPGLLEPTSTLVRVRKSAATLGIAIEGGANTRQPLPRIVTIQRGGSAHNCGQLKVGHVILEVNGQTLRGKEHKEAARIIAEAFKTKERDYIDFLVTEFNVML

Measured: binding

B1: USH2A-FlAsH (domain or fragment, UniProt Q2QI47 4819-5193)
chain: PPSGLSPPQVQTLGSRMASVHWTPPLLPNGVIHSYELQLQRACPPDSAPRCPPSHTERKYWGPGHRASLAGLQPNTAYGVQVVAYNEAGSTASGWTNFSTKKEMPQYQALFSVDSNASMVWVDWSGTFLLNGHLKEYVVTDGGRRVYSGLDTTLYIPRMVDKIFFFQVTCTTDIGSVKTPLVQYDAATGSGLVLTTPGEKKGAGTKSTEFYSELWFIMVMAVVGLILLAIFLSLILQRKIHKEPCIRERPPLVPLQKRMTPLSVYPPGETHVGLADTRLPRSGTPMSIRSSQSVSVLRIPSQSQLSHAYSQSSLHRSVSQLMDMADKKVVTEDSLWETIMGHSSGLYVDEEELMNAIKGFSSVTKEHTAFTDTHL
modifications: FlAsH-EDT2 label on the CCPGCC motif
binds: all assays above
